About 5,400 (1.8%) of roughly 300,000 compounds were called active. Inconclusive means that the source gave no clear call. Such entries were picked first, then a sample of the others. Calls come from the whole dose curve; tested in HEK293 cells. A potency beside an inconclusive call is a rough fit, not a confirmed value.
test: qHTS for inhibitors of binding or entry into cells for Marburg Virus; settings: Marburg virus pseudotyped entry inhibition, cell reporter; series mostly up to 37.8 µM
Potency is the fitted concentration of half-maximal effect.

Q: For `COc1cc(NC(=O)CSc2ncc(S(=O)(=O)c3ccc(Br)cc3)c(=O)[nH]2)cc(OC)c1`, which Potency is on record?
A: inconclusive: 14.1 µM [activator, partial curve, poor fit]

Q: With `COc1ccc(/C=N/Nc2nc3ccccc3[nH]2)c(OC)c1OC` as the compound, how does the Potency read?
A: inconclusive: 7.94 µM [inhibitor, partial curve, poor fit]

Q: With `COc1ccc(C(=O)/C=C/c2ccc(OC)c(O)c2)c(F)c1` as the compound, how does the Potency read?
A: inconclusive: 3.16 µM [inhibitor, partial curve]

Q: Which Potency does the source give for `CCOC(=O)N/N=C/c1cn(Cc2ccccc2Cl)c2ccccc12` here?
A: inconclusive: 35.5 µM [inhibitor, single point]

Q: With `Cc1ccc(C(=O)Nc2ccc(N3CCN(S(C)(=O)=O)CC3)cc2)cc1` as the compound, how does the Potency read?
A: inconclusive: 29.1 µM [inhibitor, single point]

Q: With `O=Nc1c(-c2ccccc2)[nH]n(-c2ccccc2)c1=O` as the compound, how does the Potency read?
A: inconclusive: 25.1 µM [inhibitor, single point]

Q: For `COc1cc(-c2ccc(Nc3ccccc3C(=O)O)c(OC)c2)ccc1Nc1ccccc1C(=O)O`, which Potency is on record?
A: inconclusive: 2.24 µM [inhibitor, full curve, poor fit]

Q: With `CCC(Oc1ccc(C)cc1)C(=O)Nc1ccc(S(=O)(=O)Nc2cc(C)on2)cc1` (configuration not stated) as the compound, how does the Potency read?
A: inactive

Q: Which Potency does the source give for `CCC(=O)N(CCC(c1ccco1)C(C)C)Cc1ccccc1` (configuration not stated) here?
A: inconclusive: 7.08 µM [inhibitor, partial curve, poor fit]

Q: Which Potency does the source give for `O=C(COC(=O)/C=C/c1cccc(Cl)c1)NCCc1ccc(Cl)cc1Cl` here?
A: inactive

Q: With `CC(O)C(NS(=O)(=O)c1ccc(Cl)cc1)C(=O)OCC(=O)c1c[nH]c2ccccc12` (configuration not stated) as the compound, how does the Potency read?
A: inconclusive: 2.51 µM [inhibitor, full curve]

Q: With `COc1cccc(NC(=O)CSc2nc(=O)n(CCN(C)C)c3c2CCCC3)c1` as the compound, how does the Potency read?
A: inactive

Q: For `COc1cc(OC)c(C(=O)OC(C)C(=O)Nc2cccc(C(F)(F)F)c2)cc1OC` (configuration not stated), which Potency is on record?
A: inconclusive: 14.1 µM [inhibitor, single point]

Q: Which Potency does the source give for `CCCOc1ccc(NC(=O)CC2C(=O)N(C)C(=S)N2Cc2ccc3c(c2)OCO3)cc1` (configuration not stated) here?
A: inconclusive: 0.447 µM [inhibitor, partial curve, poor fit]

Q: With `O=C(CC1COc2ccccc2O1)NCc1ccccc1` (configuration not stated) as the compound, how does the Potency read?
A: inconclusive: 18.3 µM [activator, single point]

Q: With `CC(C)C(=O)Nc1nnc(COc2ccc(Cl)cc2)s1` as the compound, how does the Potency read?
A: inactive

Q: With `COc1cc2oc(=O)cc(C)c2c(OC)c1OC` as the compound, how does the Potency read?
A: inconclusive: 6.31 µM [activator, single point]

Q: For `N/C(Cc1cccc2ccccc12)=N\OC(=O)c1ccc2c(c1)OCO2`, which Potency is on record?
A: inconclusive: 16.4 µM [inhibitor, single point]

Q: With `CNc1ccc(Br)cc(C(=O)/C=C/c2ccc(Cl)cc2Cl)c1=O` as the compound, how does the Potency read?
A: inconclusive: 11.2 µM [inhibitor, partial curve, poor fit]

Q: With `CCC(C)NC(=O)c1cnn2c(C)c3c(nc12)CCCC3` (configuration not stated) as the compound, how does the Potency read?
A: inactive

Q: With `Cc1ccccc1NC(=O)NC1CCCCC1C` (configuration not stated) as the compound, how does the Potency read?
A: inconclusive: 7.94 µM [activator, single point]

Q: Which Potency does the source give for `CCCc1cc(NCCCn2ccnc2)n2nc(C)c(-c3ccccc3)c2n1` here?
A: inconclusive: 14.1 µM [inhibitor, partial curve, poor fit]

Q: Which Potency does the source give for `O=C(COc1ccc(NC(=O)c2cccs2)cc1)c1ccc(F)cc1` here?
A: inactive

Q: Which Potency does the source give for `COc1cc2cc(CN(Cc3cccs3)C(=S)Nc3ccc(C)cc3)c(=O)[nH]c2cc1OC` here?
A: inconclusive: 5.17 µM [inhibitor, full curve, poor fit]

Q: With `OCCN1CCN(c2ncnc3nc[nH]c23)CC1` as the compound, how does the Potency read?
A: inactive

Q: For `CC1CCN(c2ccc(/C=N\Nc3nncn3N)cc2[N+](=O)[O-])CC1`, which Potency is on record?
A: inconclusive: 3.98 µM [activator, partial curve, poor fit]

Q: With `CCCN(CCC)C(=O)Cn1c(=O)c2ccccc2n2c(=S)sc(-c3ccccc3C)c12` as the compound, how does the Potency read?
A: inconclusive: 1.12 µM [activator, partial curve, poor fit]

Q: Which Potency does the source give for `CSc1ccccc1Nc1ncnc(N)n1` here?
A: inconclusive: 0.631 µM [inhibitor, single point]

Q: For `Cc1ccc(-c2cc(NC(=O)c3ccccc3)on2)cc1`, which Potency is on record?
A: inactive

Q: With `NS(=O)(=O)c1ccc(NC(=O)c2c(Cl)cccc2Cl)cc1` as the compound, how does the Potency read?
A: inactive

Q: Which Potency does the source give for `NS(=O)(=O)c1cccc(NC(=O)CN2CCN(S(=O)(=O)c3ccc4c(c3)OCCO4)CC2)c1` here?
A: inactive

Q: With `CCOc1ccccc1NC(=O)COc1coc(CN2CCc3ccccc3C2)cc1=O` as the compound, how does the Potency read?
A: inactive

Q: Which Potency does the source give for `O=C(Cc1ncc(C(F)(F)F)cc1Cl)N1CCN(c2ccccn2)CC1` here?
A: inconclusive: 29.1 µM [activator, single point]

Q: For `COc1cccc(-c2csc(NC3OC(=O)c4c3ccc(OC)c4OC)n2)c1` (configuration not stated), which Potency is on record?
A: inactive

Q: Which Potency does the source give for `O=C(NCC(=O)N1CCCC1)c1ccccc1F` here?
A: inconclusive: 6.31 µM [activator, single point]

Q: Which Potency does the source give for `Cc1cccc(NC(=O)Cn2cnc3c(oc4ccccc43)c2=O)c1` here?
A: inactive

Q: Which Potency does the source give for `O=C(Nc1ccccc1C(=O)Nc1ccccc1)c1cccs1` here?
A: inconclusive: 3.16 µM [activator, single point]

Q: For `Fc1cccc(-c2cc3nc(-c4ccccc4)cc(N4CCC5(CC4)OCCO5)n3n2)c1`, which Potency is on record?
A: inconclusive: 10 µM [inhibitor, partial curve]

Q: Which Potency does the source give for `Cc1ccc2cc(CN(CC3CCCO3)S(=O)(=O)c3ccccc3)c3nnnn3c2c1` (configuration not stated) here?
A: inconclusive: 8.2 µM [inhibitor, single point]

Q: For `CCc1[nH]nc2c1[C@@H](c1ccc(Br)s1)C(C#N)=C(N)O2`, which Potency is on record?
A: inconclusive: 12.6 µM [inhibitor, single point]

Q: Which Potency does the source give for `CCn1nnnc1SCC(=O)N1CCc2ccccc21` here?
A: inconclusive: 1.26 µM [activator, single point]

Q: For `O=C(CCl)N1N=C(c2ccco2)CC1c1ccco1` (configuration not stated), which Potency is on record?
A: inconclusive: 1.78 µM [activator, partial curve, poor fit]

Q: Which Potency does the source give for `Cc1nn(Cc2c(Cl)cccc2Cl)c(C)c1N` here?
A: inactive

Q: With `COc1ccc(CNC(=O)CN(C(=O)CCC(=O)Nc2ccccn2)c2ccccc2OC)cc1` as the compound, how does the Potency read?
A: inconclusive: 5.62 µM [activator, single point]

Q: With `O=C1c2ccccc2C(Nc2cccc(C(F)(F)F)c2)N1Cc1ccco1` (configuration not stated) as the compound, how does the Potency read?
A: active: 14.1 µM

Q: Which Potency does the source give for `Cc1nc2ncnn2c(C)c1CCC(=O)NCc1ccccc1Cl` here?
A: inactive

Q: Which Potency does the source give for `O=C(NCCc1ccccc1)C1CCN(C(=O)Nc2ccccc2)CC1` here?
A: inconclusive: 11.2 µM [activator, partial curve, poor fit]

Q: For `CC(=O)N1/C(=C/c2ccc(N(C)C)cc2)C(=O)c2ccccc21`, which Potency is on record?
A: active: 12.6 µM

Q: With `CCN(CC)c1ccc(NC(=O)c2cccc(C)c2OC)c(C)c1` as the compound, how does the Potency read?
A: inactive

Q: For `Cc1nnc(N(CCC#N)CCC#N)s1`, which Potency is on record?
A: inconclusive: 3.55 µM [inhibitor, full curve]

Q: For `O=C(Nc1ccccc1)OCc1cc(-c2ccccc2Cl)on1`, which Potency is on record?
A: inconclusive: 35.5 µM [inhibitor, single point]

Q: With `C/C(=N/Nc1ccc([N+](=O)[O-])cc1)c1ccc(C)cc1C` as the compound, how does the Potency read?
A: inactive

Q: Which Potency does the source give for `CC1CCN(c2ccc(-c3ccc(NC(=O)c4ccco4)cc3)nn2)CC1` here?
A: inconclusive: 8.91 µM [activator, partial curve, poor fit]

Q: With `CCOc1cccc(C2C(C(=O)c3ccc(C)o3)=C(O)C(=O)N2c2nnc(C)s2)c1` (configuration not stated) as the compound, how does the Potency read?
A: inconclusive: 22.4 µM [inhibitor, single point]

Q: Which Potency does the source give for `COc1ccc(C(=O)Nc2ccccc2-c2nnn(CC(=O)Nc3ccc4c(c3)OCCO4)n2)cc1` here?
A: inactive

Q: For `Cc1ccc(C(=O)NNC(=O)c2ccoc2C)s1`, which Potency is on record?
A: inactive

Q: For `COc1ccc(N2C3=C(C(=O)CC(C)(C)C3)C(c3ccccc3OC)C3=C2CC(C)(C)CC3=O)cc1`, which Potency is on record?
A: inconclusive: 10 µM [inhibitor, partial curve]

Q: With `Cc1ccc(Cn2cccc(NC(=O)c3ccco3)c2=O)cc1` as the compound, how does the Potency read?
A: inactive

Q: With `CCCCOC(=O)CSC1=C(C#N)C(c2cccnc2)C(C(=O)OCC)=C(c2ccccc2)N1` (configuration not stated) as the compound, how does the Potency read?
A: inconclusive: 12.6 µM [inhibitor, partial curve, poor fit]

Q: With `CCCc1cc(C(=O)Nc2nccs2)cs1` as the compound, how does the Potency read?
A: inconclusive: 14.6 µM [inhibitor, partial curve, poor fit]

Q: For `COC(=O)CCN(c1ccccc1)S(=O)(=O)c1cc(-c2cc(C)no2)ccc1OC`, which Potency is on record?
A: inactive

Q: For `CCN1CCSc2ccc(C(=O)NCc3ccc(OC)cc3)cc21`, which Potency is on record?
A: inactive

Q: For `CCOC(=O)C1(CCc2ccccc2)CCN(Cc2ccccn2)CC1`, which Potency is on record?
A: inconclusive: 0.562 µM [inhibitor, full curve, poor fit]

Q: For `CCS(=O)(=O)Nc1ccc(C2=NN(S(C)(=O)=O)C(c3cccs3)C2)cc1` (configuration not stated), which Potency is on record?
A: inactive

Q: Which Potency does the source give for `CC(=O)N1c2ccc(S(=O)(=O)N3CCCC(C(=O)Nc4cccc(Cl)c4)C3)cc2CC1C` (configuration not stated) here?
A: inconclusive: 5.01 µM [inhibitor, partial curve, poor fit]

Q: Which Potency does the source give for `COCC=CC1=CC2=CC(=O)C(C)(OC(=O)c3cnc4ccccc4n3)C(=O)C2=CN1CC1CC1` (configuration not stated) here?
A: inactive

Q: Which Potency does the source give for `O=C(Cn1cc(C(F)(F)F)ccc1=O)Nc1ccc2c(c1)OCCO2` here?
A: inconclusive: 17.8 µM [activator, partial curve, poor fit]

Q: Which Potency does the source give for `O=C(Cn1ncc2c3ccccc3n(Cc3cccc(Cl)c3)c2c1=O)NC1CCCCCC1` here?
A: inactive

Q: With `CCCC(c1nnnn1Cc1ccc(F)cc1)N1CCN(C2CCCCC2)CC1` (configuration not stated) as the compound, how does the Potency read?
A: active: 8.91 µM

Q: Which Potency does the source give for `Nc1nc(-c2ccc(NC(=O)c3ccco3)cc2)cs1` here?
A: active: 5.01 µM

Q: For `CCCSc1nc(O)c(C2OC(=O)c3c2ccc(OC)c3OC)c(=O)n1-c1ccccc1` (configuration not stated), which Potency is on record?
A: inactive

Q: With `COc1ccccc1C(=O)NCC(=O)OCCCOC(=O)CNC(=O)c1ccccc1OC` as the compound, how does the Potency read?
A: inconclusive: 35.5 µM [activator, single point]

From PubChem BioAssay AID540276 (National Center for Advancing Translational Sciences (NCATS), 2011)
